The list shows a part of the results.
Compound: COc1cc2ncnc(Nc3ccc(F)c(Cl)c3)c2cc1OCCCN1CCOCC1 [gefitinib]
Experiment: log2 fold change, soluble protein after heating vs DMSO (PISA); higher = thermal stabilisation; K562 cells, 10 uM, 30 min; active = over 0.2 and 3.5 SD of the protein, either way, in both replicates (recomputed)
How it was run: (§1)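 K562 cells (2×10^6 cells/mL) were treated with 10 μM compound for 30 min, and aliquots were heated for 3 min over 48°C-58°C. Pooled aliquots were extracted in PBS with 0.5% NP-40 at 4°C, and the supernatant after 21,000xg for 90 min was measured by TMTpro 16plex LC-MS/MS with channel sums equalised. Reported thermal stability, relative to control samples and from duplicates, is a log2 fold change.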

Chains of the proteins cited; added tags and fusions are not shown. Lines headed by an entry give the natural chain unless they say otherwise; changes in a name come on top.
UniProt P19474, whole entry, looked up: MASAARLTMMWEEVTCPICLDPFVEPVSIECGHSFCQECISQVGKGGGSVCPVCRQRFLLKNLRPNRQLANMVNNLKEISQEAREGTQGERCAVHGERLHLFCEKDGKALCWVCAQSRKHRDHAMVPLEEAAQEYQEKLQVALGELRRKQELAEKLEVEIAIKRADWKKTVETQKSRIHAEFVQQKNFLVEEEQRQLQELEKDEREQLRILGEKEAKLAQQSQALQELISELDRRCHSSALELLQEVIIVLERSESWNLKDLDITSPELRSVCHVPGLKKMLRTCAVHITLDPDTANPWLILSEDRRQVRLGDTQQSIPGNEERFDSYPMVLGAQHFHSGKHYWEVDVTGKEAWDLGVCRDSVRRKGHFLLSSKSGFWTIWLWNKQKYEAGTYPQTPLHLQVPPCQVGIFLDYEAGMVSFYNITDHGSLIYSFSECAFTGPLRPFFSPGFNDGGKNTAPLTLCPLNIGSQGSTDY
UniProt Q15628: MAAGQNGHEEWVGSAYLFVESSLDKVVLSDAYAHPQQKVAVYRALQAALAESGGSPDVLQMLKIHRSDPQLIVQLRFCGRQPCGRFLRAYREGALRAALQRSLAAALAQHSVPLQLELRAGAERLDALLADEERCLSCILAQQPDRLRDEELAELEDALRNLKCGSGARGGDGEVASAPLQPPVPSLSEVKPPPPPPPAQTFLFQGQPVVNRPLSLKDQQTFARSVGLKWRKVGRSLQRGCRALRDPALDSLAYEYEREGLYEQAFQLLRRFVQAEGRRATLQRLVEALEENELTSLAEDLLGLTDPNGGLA
UniProt Q14669: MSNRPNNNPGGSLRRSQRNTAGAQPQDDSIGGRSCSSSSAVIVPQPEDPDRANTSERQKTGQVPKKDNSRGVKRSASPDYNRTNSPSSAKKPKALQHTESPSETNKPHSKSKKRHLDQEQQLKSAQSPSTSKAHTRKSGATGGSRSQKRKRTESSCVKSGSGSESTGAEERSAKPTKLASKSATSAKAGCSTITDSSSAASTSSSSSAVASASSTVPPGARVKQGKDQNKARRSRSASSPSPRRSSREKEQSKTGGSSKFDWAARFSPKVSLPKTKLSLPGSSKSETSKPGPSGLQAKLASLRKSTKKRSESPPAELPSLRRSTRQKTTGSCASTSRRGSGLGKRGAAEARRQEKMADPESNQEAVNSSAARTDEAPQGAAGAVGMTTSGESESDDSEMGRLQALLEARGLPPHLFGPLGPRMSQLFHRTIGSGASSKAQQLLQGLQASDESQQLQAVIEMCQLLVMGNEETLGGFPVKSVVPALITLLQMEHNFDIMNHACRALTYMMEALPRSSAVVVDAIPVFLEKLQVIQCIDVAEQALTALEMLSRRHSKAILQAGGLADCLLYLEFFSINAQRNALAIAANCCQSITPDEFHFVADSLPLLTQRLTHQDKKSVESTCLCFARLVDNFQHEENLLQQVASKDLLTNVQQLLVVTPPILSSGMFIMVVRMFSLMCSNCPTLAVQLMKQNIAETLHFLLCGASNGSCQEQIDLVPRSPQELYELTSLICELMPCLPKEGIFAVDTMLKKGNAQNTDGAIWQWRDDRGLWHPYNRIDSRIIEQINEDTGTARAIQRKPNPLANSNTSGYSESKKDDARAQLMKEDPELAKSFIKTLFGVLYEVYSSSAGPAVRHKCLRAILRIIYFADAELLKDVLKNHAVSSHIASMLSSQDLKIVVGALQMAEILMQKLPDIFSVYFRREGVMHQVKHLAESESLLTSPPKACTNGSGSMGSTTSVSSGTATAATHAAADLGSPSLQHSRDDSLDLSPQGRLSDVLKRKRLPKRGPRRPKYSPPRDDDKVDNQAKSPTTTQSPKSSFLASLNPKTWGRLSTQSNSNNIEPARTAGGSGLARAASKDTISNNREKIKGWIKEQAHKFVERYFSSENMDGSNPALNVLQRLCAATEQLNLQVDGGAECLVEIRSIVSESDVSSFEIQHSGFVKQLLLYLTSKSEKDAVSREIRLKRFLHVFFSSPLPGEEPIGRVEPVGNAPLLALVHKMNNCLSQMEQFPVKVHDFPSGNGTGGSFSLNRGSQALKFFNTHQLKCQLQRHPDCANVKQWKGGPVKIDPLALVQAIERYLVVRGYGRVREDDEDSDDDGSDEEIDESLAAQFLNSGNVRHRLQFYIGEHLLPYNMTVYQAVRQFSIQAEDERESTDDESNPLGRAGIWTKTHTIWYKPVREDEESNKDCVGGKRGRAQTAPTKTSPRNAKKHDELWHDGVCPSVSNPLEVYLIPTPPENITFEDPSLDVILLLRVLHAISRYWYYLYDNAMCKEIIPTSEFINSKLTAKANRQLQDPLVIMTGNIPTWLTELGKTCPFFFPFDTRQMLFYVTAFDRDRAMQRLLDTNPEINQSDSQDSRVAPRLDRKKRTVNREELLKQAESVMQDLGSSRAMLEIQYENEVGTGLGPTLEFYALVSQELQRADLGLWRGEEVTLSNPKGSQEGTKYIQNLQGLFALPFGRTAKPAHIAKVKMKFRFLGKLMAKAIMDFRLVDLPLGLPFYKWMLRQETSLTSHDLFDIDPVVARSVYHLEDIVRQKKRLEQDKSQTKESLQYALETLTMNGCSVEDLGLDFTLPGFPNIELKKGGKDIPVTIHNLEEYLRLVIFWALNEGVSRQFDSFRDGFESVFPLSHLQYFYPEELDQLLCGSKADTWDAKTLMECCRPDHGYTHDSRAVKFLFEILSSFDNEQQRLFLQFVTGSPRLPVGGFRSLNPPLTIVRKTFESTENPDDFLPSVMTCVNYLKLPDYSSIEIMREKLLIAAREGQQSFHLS
UniProt O43399: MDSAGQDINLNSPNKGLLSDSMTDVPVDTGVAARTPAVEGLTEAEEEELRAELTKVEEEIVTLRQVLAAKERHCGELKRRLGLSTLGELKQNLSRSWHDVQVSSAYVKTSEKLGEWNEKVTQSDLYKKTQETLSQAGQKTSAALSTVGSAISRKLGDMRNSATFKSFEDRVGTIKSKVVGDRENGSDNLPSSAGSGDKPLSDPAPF
UniProt Q32P41: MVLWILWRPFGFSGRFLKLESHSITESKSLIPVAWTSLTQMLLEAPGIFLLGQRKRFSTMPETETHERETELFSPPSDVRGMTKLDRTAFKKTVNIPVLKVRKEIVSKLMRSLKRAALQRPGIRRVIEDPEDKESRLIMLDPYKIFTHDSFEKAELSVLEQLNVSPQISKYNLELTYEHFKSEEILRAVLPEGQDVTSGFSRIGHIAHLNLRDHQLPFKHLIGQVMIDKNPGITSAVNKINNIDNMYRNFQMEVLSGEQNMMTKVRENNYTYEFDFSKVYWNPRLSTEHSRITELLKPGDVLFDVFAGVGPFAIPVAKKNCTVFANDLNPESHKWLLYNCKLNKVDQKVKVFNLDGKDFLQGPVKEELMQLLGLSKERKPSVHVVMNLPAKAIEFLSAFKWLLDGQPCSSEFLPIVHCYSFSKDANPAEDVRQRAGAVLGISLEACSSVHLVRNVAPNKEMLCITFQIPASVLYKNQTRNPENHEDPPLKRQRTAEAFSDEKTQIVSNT
UniProt Q9UPN9: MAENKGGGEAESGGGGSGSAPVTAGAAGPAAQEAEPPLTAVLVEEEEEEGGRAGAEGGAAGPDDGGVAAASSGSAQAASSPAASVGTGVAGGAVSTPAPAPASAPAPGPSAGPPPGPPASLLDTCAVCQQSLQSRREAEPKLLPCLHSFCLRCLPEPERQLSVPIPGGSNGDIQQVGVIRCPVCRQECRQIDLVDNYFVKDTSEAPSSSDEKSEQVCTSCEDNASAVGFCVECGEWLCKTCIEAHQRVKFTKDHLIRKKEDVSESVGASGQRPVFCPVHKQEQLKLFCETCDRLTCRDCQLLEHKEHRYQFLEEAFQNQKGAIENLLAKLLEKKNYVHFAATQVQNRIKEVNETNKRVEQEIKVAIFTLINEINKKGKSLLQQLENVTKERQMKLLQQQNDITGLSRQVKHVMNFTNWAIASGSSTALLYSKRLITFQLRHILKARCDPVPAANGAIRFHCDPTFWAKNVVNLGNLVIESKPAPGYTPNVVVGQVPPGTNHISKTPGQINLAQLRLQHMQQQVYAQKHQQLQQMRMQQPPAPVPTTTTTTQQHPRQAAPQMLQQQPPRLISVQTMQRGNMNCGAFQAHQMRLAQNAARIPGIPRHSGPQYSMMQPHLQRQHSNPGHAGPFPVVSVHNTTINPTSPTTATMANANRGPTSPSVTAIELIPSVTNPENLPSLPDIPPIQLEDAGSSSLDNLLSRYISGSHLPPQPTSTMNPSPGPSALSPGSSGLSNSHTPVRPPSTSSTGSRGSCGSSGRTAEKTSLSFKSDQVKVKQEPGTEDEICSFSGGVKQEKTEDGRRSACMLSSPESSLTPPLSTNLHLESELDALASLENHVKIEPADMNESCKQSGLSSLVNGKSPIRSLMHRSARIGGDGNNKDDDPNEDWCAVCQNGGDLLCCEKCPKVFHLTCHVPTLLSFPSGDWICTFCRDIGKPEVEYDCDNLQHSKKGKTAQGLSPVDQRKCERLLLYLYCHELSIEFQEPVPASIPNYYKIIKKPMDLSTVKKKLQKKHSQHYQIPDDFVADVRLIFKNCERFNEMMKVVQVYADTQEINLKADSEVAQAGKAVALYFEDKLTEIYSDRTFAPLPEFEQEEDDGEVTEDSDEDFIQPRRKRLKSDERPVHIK
UniProt O75865, whole entry, looked up: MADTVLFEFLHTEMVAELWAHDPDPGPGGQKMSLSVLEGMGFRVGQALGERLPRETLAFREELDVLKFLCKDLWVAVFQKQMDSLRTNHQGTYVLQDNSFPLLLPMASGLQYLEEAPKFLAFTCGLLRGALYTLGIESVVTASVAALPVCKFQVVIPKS
UniProt Q86W33: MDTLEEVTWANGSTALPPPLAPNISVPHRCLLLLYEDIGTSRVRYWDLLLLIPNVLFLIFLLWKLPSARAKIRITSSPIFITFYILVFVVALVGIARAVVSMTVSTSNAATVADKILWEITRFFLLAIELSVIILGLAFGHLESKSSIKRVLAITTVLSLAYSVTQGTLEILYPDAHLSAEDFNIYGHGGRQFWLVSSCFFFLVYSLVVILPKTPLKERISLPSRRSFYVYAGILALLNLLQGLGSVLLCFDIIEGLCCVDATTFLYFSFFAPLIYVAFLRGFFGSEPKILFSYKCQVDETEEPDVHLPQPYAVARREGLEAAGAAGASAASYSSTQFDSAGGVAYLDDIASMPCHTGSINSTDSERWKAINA
UniProt Q9H496: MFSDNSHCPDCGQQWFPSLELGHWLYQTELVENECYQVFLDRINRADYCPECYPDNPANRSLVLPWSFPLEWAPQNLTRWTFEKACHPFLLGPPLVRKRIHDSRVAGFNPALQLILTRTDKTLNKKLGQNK
UniProt Q15025: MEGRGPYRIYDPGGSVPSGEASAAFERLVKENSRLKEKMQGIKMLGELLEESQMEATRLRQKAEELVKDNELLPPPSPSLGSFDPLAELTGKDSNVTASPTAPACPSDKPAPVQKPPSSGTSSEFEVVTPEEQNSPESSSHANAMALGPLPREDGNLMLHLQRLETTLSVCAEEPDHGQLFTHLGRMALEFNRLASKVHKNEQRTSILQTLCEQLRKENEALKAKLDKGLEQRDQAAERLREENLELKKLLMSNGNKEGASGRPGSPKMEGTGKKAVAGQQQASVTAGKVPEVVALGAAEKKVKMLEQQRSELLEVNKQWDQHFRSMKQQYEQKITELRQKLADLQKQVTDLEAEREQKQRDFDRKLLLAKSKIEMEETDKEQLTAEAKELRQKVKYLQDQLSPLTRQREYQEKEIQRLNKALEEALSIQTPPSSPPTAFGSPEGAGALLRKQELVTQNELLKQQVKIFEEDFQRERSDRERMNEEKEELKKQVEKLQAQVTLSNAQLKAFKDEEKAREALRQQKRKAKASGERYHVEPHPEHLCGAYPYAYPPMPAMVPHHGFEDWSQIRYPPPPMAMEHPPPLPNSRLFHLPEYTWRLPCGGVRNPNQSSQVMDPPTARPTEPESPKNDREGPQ
UniProt Q14134: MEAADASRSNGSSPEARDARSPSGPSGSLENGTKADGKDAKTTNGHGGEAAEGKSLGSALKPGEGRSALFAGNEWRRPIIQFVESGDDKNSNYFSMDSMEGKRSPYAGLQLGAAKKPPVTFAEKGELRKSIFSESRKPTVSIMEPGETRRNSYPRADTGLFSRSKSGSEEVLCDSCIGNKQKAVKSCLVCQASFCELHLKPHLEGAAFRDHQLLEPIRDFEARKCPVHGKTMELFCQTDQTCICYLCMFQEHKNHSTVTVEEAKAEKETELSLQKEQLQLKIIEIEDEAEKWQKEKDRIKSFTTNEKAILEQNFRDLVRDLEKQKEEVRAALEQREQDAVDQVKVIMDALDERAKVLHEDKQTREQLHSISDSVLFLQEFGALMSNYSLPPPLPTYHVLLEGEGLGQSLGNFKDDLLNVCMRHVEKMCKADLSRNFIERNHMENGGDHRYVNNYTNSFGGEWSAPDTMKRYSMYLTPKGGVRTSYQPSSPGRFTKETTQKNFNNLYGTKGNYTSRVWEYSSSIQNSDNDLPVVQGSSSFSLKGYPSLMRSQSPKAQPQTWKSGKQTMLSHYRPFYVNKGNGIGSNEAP

log2 fold change, inactive:
TRIM21 (UniProt P19474) -0.01
TRADD (UniProt Q15628) 0.028
TPRG1L (UniProt Q5T0D9) -0.197
TRA2A (UniProt Q13595) 0.094
TRIP12 isoform 3 (UniProt Q14669) 0.018
TPD52L2 isoform 3 (UniProt O43399) -0.153
TRMT5 (UniProt Q32P41) 0.191
TRAPPC2 isoform 3 (UniProt P0DI81) 0.064
TRIM33 isoform 2 (UniProt Q9UPN9) -0.143
TRAPPC6A isoform 2 (UniProt O75865) 0.108
TPRA1 (UniProt Q86W33) -0.227
TRMT2B (UniProt Q96GJ1) 0.171
TRIM14 (UniProt Q14142) 0.193
TOR1AIP2 (UniProt Q9H496) 0.089

Compound: COc1cccc2cc(-c3nc([C@H]4CC[C@H](C(=O)O)CC4)n4ncnc(N)c34)[nH]c12
Experiment: as above
How it was run: as §1

log2 fold change, inactive:
TRIM21 (UniProt P19474) 0.094
TNIK isoform 3 (UniProt Q9UKE5) 0.026
TRADD (UniProt Q15628) 0.074
TPRG1L (UniProt Q5T0D9) -0.162
TNXB isoform 4 (UniProt P22105) 0.129
TNIP1 (UniProt Q15025) 0.056
TRIP12 isoform 3 (UniProt Q14669) 0.163
TPD52L2 isoform 3 (UniProt O43399) -0.202
TNRC6A (UniProt Q8NDV7) -0.081
TRAPPC2 isoform 3 (UniProt P0DI81) -0.144
TRIM33 isoform 2 (UniProt Q9UPN9) 0.075
TRAPPC6A isoform 2 (UniProt O75865) 0.007
TPRA1 (UniProt Q86W33) 0.205
TRMT2B (UniProt Q96GJ1) -0.005
TRIM29 (UniProt Q14134) -0.025
TOR1AIP2 (UniProt Q9H496) -0.029

From the supplement of paper PMC10849652
